Assay results as given in paper PMC10899256.
No constants are given. Whether binding was seen depends on the method and setting. In cells and extracts the contact can be indirect. A yes stands for co-enrichment or nearness to the bait. Other partners may have been found.

Chains of the proteins cited; added tags and fusions are not shown. Lines headed by an entry give the natural chain unless they say otherwise; changes in a name come on top. A line that says so, or that is headed by a name, gives the form on record, which may keep a tag or linker.
GST-TBC1D23 (full-length TBC1D23, 1–684) (Q9NUY8, form named): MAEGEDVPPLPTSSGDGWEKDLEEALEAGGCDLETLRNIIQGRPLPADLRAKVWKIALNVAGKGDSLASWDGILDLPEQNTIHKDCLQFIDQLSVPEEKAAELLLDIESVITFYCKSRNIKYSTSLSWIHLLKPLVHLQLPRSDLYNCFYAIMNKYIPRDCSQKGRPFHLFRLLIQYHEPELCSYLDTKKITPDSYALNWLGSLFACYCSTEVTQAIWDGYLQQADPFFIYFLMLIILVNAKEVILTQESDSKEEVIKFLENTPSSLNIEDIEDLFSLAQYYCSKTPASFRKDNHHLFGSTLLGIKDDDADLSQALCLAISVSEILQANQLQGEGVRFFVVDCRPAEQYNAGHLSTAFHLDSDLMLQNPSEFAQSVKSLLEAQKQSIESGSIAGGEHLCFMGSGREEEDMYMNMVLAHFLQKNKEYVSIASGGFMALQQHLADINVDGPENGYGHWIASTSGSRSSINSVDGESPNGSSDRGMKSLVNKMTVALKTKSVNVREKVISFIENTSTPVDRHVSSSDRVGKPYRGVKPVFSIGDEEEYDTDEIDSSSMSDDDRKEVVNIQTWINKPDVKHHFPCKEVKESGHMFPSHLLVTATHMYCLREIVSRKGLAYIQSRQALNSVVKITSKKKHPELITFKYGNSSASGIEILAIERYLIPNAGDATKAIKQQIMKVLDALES

Target: GST-TBC1D23 (full-length TBC1D23, 1–684) (human) (UniProt Q9NUY8)
Test: affinity purification with mass spectrometry; GST-TBC1D23 versus GST vector in transfected HEK293T; NETN buffer, GST beads 2 h at 4 °C, eluted with 10 mM GSH, SDS-PAGE, in-gel trypsin digest, LC-MS/MS

binding: binds
B1: golgin-97, endogenous in HEK293T (protein, UniProt Q92805 1-767)
chain: MFAKLKKKIAEETAVAQRPGGATRIPRSVSKESVASMGADSGDDFASDGSSSREDLSSQLLRRNEQIRKLEARLSDYAEQVRNLQKIKEKLEIALEKHQDSSMRKFQEQNETFQANRAKMAEGLALALARKDQEWSEKMDQLEKEKNILTAQLQEMKNQSMNLFQRRDEMDELEGFQQQELSKIKHMLLKKEESLGKMEQELEARTRELSRTQEELMNSNQMSSDLSQKLEELQRHYSTLEEQRDHVIASKTGAESKITALEQKEQELQALIQQLSIDLQKVTAETQEKEDVITHLQEKVASLEKRLEQNLSGEEHLQELLKEKTLAEQNLEDTRQQLLAARSSQAKAINTLETRVRELEQTLQASEEQLQQSKGIVAAQETQIQELAAANQESSHVQQQALALEQQFLERTQALEAQIVALERTRAADQTTAEQGMRQLEQENAALKECRNEYERSLQNHQFELKKLKEEWSQREIVSVAMAQALEEVRKQREEFQQQAANLTAIIDEKEQNLREKTEVLLQKEQEILQLERGHNSALLQIHQLQAELEALRTLKAEEAAVVAEQEDLLRLRGPLQAEALSVNESHVTSRAMQDPVFQLPTAGRTPNGEVGAMDLTQLQKEKQDLEQQLLEKNKTIKQMQQRMLELRKTLQKELKIRPDNELFEVREKPGPEMANMAPSVTNNTDLTDAREINFEYLKHVVLKFMSCRESEAFHLIKAVSVLLNFSQEEENMLKETLEYKMSWFGSKPAPKGSIRPSISNPRIPWS
